PubChem BioAssay AID1259425 – University of Nebraska Medical Center, 2018
Screen: 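Seek colon cancer weak points whose silencing resembles KSR1 loss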 (primary screen). Cell system: HCT116 human colon cancer cells. Knock-down reagent: siRNA pool against human genes, 50 nM siRNA. Measurement: 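mRNA of six signature genes measured together by branched-DNA assay after 50 nM siRNA pool, blank removed, divided by geometric mean of two housekeeping genes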. Scale: BNIP3L mRNA: higher = more BNIP3L transcript after knockdown; NDRG1 mRNA: higher = more NDRG1 transcript after knockdown.
In all, the deposit lists about 14,000 reagents; this is a random part of them. Not all columns of the deposit are shown. The record does not give: the time to read-out.

What is on record for CYREN (cell cycle regulator of NHEJ)?
BNIP3L mRNA, set 1: 0.085; NDRG1 mRNA, set 1: 0.131

Which result is listed for ZNF527 (zinc finger protein 527)?
BNIP3L mRNA, set 1: 0.139; NDRG1 mRNA, set 1: 0.299

Which result is listed for GAP43 (growth associated protein 43)?
BNIP3L mRNA, set 1: 0.129; NDRG1 mRNA, set 1: 0.21

For SIPA1 (signal-induced proliferation-associated 1), how do the results read?
BNIP3L mRNA, set 1: 0.0879; NDRG1 mRNA, set 1: 0.114

With CPXM1 (carboxypeptidase X, M14 family member 1), what does the deposit list?
BNIP3L mRNA, set 1: 0.0549; NDRG1 mRNA, set 1: 0.154

With ADPGK (ADP dependent glucokinase), what was measured?
BNIP3L mRNA, set 1: 0.0934; NDRG1 mRNA, set 1: 0.162

For HOOK3 (hook microtubule tethering protein 3), what was measured?
BNIP3L mRNA, set 1: 0.139; NDRG1 mRNA, set 1: 0.0742

What is on record for HIPK3 (homeodomain interacting protein kinase 3)?
BNIP3L mRNA, set 1: 0.088; NDRG1 mRNA, set 1: 0.111

With PPHLN1 (periphilin 1), how do the results read?
BNIP3L mRNA, set 1: 0.133; NDRG1 mRNA, set 1: 0.221

For SERINC1 (serine incorporator 1), what was measured?
BNIP3L mRNA, set 1: 0.122; NDRG1 mRNA, set 1: 0.212

Which result is listed for NAPSA (napsin A aspartic peptidase)?
BNIP3L mRNA, set 1: 0.135; NDRG1 mRNA, set 1: 0.139

With ACKR2 (atypical chemokine receptor 2), how do the results read?
BNIP3L mRNA, set 1: 0.396; NDRG1 mRNA, set 1: 0.506

What is on record for CD177 (CD177 molecule)?
BNIP3L mRNA, set 1: 0.139; NDRG1 mRNA, set 1: 0.153

For ARL4D (ARF like GTPase 4D), what does the deposit list?
BNIP3L mRNA, set 1: 0.0504; NDRG1 mRNA, set 1: 0.0693

How did the screen score RHOQ (ras homolog family member Q)?
BNIP3L mRNA, set 1: 0.0789; NDRG1 mRNA, set 1: 0.0481

How did the screen score ZMYND8 (zinc finger MYND-type containing 8)?
BNIP3L mRNA, set 1: 0.32; NDRG1 mRNA, set 1: 0.183

A few values from the entries so far:
Result for NAPSA (napsin A aspartic peptidase) in “BNIP3L mRNA, set 1”: 0.135
ZNF527 (zinc finger protein 527), NDRG1 mRNA, set 1: 0.299

Next reagents follow:
What is on record for COXFA4 (cytochrome c oxidase associated subunit FA4)?
BNIP3L mRNA, set 1: 0.127; NDRG1 mRNA, set 1: 1.35

With PRKCE (protein kinase C epsilon), what was measured?
BNIP3L mRNA, set 1: 0.255; NDRG1 mRNA, set 1: 0.0927

What is on record for TCEAL7 (transcription elongation factor A like 7)?
BNIP3L mRNA, set 1: 0.0786; NDRG1 mRNA, set 1: 0.149

For USP29 (ubiquitin specific peptidase 29), what does the deposit list?
BNIP3L mRNA, set 1: 0.0749; NDRG1 mRNA, set 1: 0.133

How did the screen score ARHGAP31 (Rho GTPase activating protein 31)?
BNIP3L mRNA, set 1: 0.165; NDRG1 mRNA, set 1: 0.191

With CCK (cholecystokinin), what was measured?
BNIP3L mRNA, set 1: 0.115; NDRG1 mRNA, set 1: 0.198

How did the screen score HOXB1 (homeobox B1)?
BNIP3L mRNA, set 1: 0.0714; NDRG1 mRNA, set 1: 0.38

What did the screen give for PKLR (pyruvate kinase L/R)?
BNIP3L mRNA, set 1: 0.123; NDRG1 mRNA, set 1: 0.503

How did the screen score SOAT1 (sterol O-acyltransferase 1)?
BNIP3L mRNA, set 1: 0.0492; NDRG1 mRNA, set 1: 0.0363

What did the screen give for SF3A2 (splicing factor 3a subunit 2)?
BNIP3L mRNA, set 1: 0.197; NDRG1 mRNA, set 1: 0.36

For DANCR (differentiation antagonizing non-protein coding RNA), what was measured?
BNIP3L mRNA, set 1: 0.157; NDRG1 mRNA, set 1: 0.999

What did the screen give for SF3B1 (splicing factor 3b subunit 1)?
BNIP3L mRNA, set 1: 0.141; NDRG1 mRNA, set 1: 1.82

How did the screen score VGF (VGF nerve growth factor inducible)?
BNIP3L mRNA, set 1: 0.0476; NDRG1 mRNA, set 1: 0.106

What is on record for PROK1 (prokineticin 1)?
BNIP3L mRNA, set 1: 0.216; NDRG1 mRNA, set 1: 0.453

What did the screen give for CA5A (carbonic anhydrase 5A)?
BNIP3L mRNA, set 1: 0.112; NDRG1 mRNA, set 1: 0.262

For PACSIN2 (protein kinase C and casein kinase substrate in neurons 2), how do the results read?
BNIP3L mRNA, set 1: 0.165; NDRG1 mRNA, set 1: 0.176

With DVL1 (dishevelled segment polarity protein 1), what does the deposit list?
BNIP3L mRNA, set 1: 0.0949; NDRG1 mRNA, set 1: 0.112

For TRIM17 (tripartite motif containing 17), how do the results read?
BNIP3L mRNA, set 1: 0.196; NDRG1 mRNA, set 1: 0.45

How did the screen score CSAG1 (chondrosarcoma associated gene 1)?
BNIP3L mRNA, set 1: 0.146; NDRG1 mRNA, set 1: 0.881

For ABCA4 (ATP binding cassette subfamily A member 4), how do the results read?
BNIP3L mRNA, set 1: 0.168; NDRG1 mRNA, set 1: 0.151
